We go through one compound from patent US9226912B2, “Acetyltanshinone IIA (ATA) as anticancer agent” (Nanyang Technological University, priority 2011, dated 2016).

Experiment in all cases: Growth inhibition at 72 h by MTT assay
For orientation: Tetrazolium assays rely on reduction of a dye to a coloured formazan, in cell work by metabolically active cells.

For one experiment, the system named is T47D. Format: cell-based. Conditions: Homo sapiens, T47D (ER+).
For another experiment, the system named is MDA-MB-231. Conditions: Homo sapiens, MDA-MB-231, 72 h.
A further experiment deals with BT474. Conditions: Homo sapiens, BT-474, 72 h.

SMILES strings stand for the structures.

Take `CC/C(=C(\c1ccccc1)c1ccc(OCCN(C)C)cc1)c1ccccc1` [tamoxifen, reference compound]: the figures for the IC50 in the experiment with T47D, with MDA-MB-231 and in the experiment on BT474 were 9.4 ± 0.6 µM, 21.8 ± 2.9 µM and 6.2 ± 0.1 µM, respectively.

By IC50 is commonly meant the concentration that gives 50% inhibition. Read a high IC50 as weaker potency in that assay.
